Measurements reported in US20140309404A1.
No constants are given. Whether binding was seen depends on the method and setting. Binding calls can cover weak binding; strength is not graded here.

Target: Cynomolgus monkey BMP-6 (cynomolgus monkey)
Experiment: SPR (BIAcore), 37 C; said of Antibody I from the Fab data of Table 4

binding: binds
B1: Antibody I (antibody, human IgG4 S228P, kappa, F234A L235A, V domains shown)
VH: QVQLVQSGAEVKKPGSSVKVSCKASGYTFTSYAMHWVRQAPGQGLEWMGYINPYNDGTKYNENFKGRVTITADESTSTAYMELSSLRSEDTAVYYCARRPFGNAMDIWGQGTLVTVSS
VL: DIQMTQSPSSLSASVGDRVTITCRSSENIYRNLAWYQQKPGKAPKLLIYAATNLADGVPSRFSGSGSGTDFTLTISSLQPEDFATYYCQGIWGTPLTFGGGTKVEIKR
